Experimental data taken from patent US10689423B2, “CTLA4-binding protein peptide-linker masks” (City of Hope, priority 2015, dated 2020).
At least one peptide structure holds a part that was inferred or is arguable (an end, a ring closure or a residue). Bridge positions count the residues as written; N and C are the ends. Peptide text beside a SMILES is read from it.

System: Lcn2-Fc
Test: Phage competition ELISA of surface-bound peptides on immobilized Lcn2-Fc
Format: binding
Details: compared to Lcn2-Fc pre-complexed with CTLA4-Fc or PBS control
Description: FIGS. 2A and 2B: Identification and characterization of a peptide (CTLA-4 binding domain masking peptide) blocking binding of mLcn2 (CTLA-4 binding domain) to CTLA-4. […] FIG. 2B is a graph showing surface plasmon resonance traces of analyte mLcn2-Fc flowed over ligand Peptide 16 immobilized to a CM5 chip.
FIG. 10B: ELISA results of bacteriophage library after three rounds of enrichment. Wells in a 96-well plate were immobilized with mLcn2-Fc (left column), mLcn2-Fc pre-complexed with CTLA-4-Fc (middle column), or PBS (right column). Each condition was performed in triplicate.
FIGS. 12A-12D: 18 min substrate incubation. […] FIG. 12A is a graph showing Clone 1—YGLGFNF (SEQ ID NO:52); FIG. 12B is a graph showing Clone 2—RIDETLQ (SEQ ID NO:53); FIG. 12C is a graph showing Clone 3—FTPWPEA (SEQ ID NO:54); and FIG. 12D is a graph showing Clone 4—WPEWDLW (SEQ ID NO:55).
FIGS. 13A-13D: 18 min substrate incubation. […] FIG. 13A is a graph showing clone 6—EKWFRFM (SEQ ID NO:56); FIG. 13B is a graph showing clone 8—YLELMHS (SEQ ID NO:57); FIG. 13C is a graph showing clone 12—SVLPPFM (SEQ ID NO:58); FIG. 13D is a graph showing clone 16—WSPLPFM (SEQ ID NO:59).
The sequence of mLcn2 was obtained from the PDB, synthesized and produced in bacteria. Peptides that specifically bind to mLcn2 were identified using a cyclic 7-mer library. […]

Structure (SMILES): CSCC[C@@H]1NC(=O)[C@H](Cc2ccccc2)NC(=O)[C@@H]2CCCN2C(=O)[C@H](CC(C)C)NC(=O)[C@@H]2CCCN2C(=O)[C@H](CO)NC(=O)[C@H](Cc2c[nH]c3ccccc23)NC(=O)[C@@H](N)CSSC[C@@H](C(=O)O)NC1=O [Peptide 16, CWSPLPFMC] (H-CWSPLPFMC-OH; disulfide 1-9)
- phage binding to immobilized Lcn2-Fc by ELISA: increased binding to immobilized mLcn2-Fc
- phage binding to immobilized Lcn2-Fc by ELISA (listed as clone 16): increased binding to immobilized Lcn2-Fc
